Data as given in PubChem BioAssay AID1224828 (NIAID, 2016).
Assay: 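Find genes required for NF-kappaB p65 moving into the nucleus after LPS in mouse macrophages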 (primary screen). Cells: mouse RAW264.7 G9 macrophage reporter cells (GFP-p65, Tnf promoter-mCherry). Reagents: siRNA pool against mouse genes, 100 nM. Timing: 2 days siRNA transfection, then 40 min LPS before fixation. Treatment: LPS (Salmonella minnesota R595) at 10 ng/ml. Measured: 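Microscopy ratio of nuclear to perinuclear-ring GFP-p65 signal, scaled to the plate median; gene score is the average of two replicate robust z-scores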. Direction: p65 translocation robust z-score: higher = more nuclear NF-kappaB p65 after LPS than the plate median; nuclear/cytoplasmic p65 ratio: higher = more nuclear NF-kappaB p65. Call rule: 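Active if robust z is above 3.3 (negative regulators) or below -1.56, the Tlr4 control median (positive regulators); activity score 50 or more; control wells not called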. Calls: active = hit (p65 shift raised or lowered); inactive = no clear change.
The whole screen tested about 17,000 reagents; shown is a part drawn at random. 762 of all reagents (4.5%) were called active. 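Active calls include both raised and lowered p65 entry, mostly lowered; wells with fewer than 50 cells lack a z-score.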 Raw values vary from plate to plate and are shown uncorrected.

gene symbol	PubChem SID	p65 translocation robust z-score	nuclear/cytoplasmic p65 ratio, rep 1	nuclear/cytoplasmic p65 ratio, rep 2	low cell count flag	call
Dcaf10 (DDB1 and CUL4 associated factor 10)	SID315479613	0.96	1.55	1.61	enough cells to score	inactive
Shisa7 (shisa family member 7)	SID315479010	0.51	1.6	1.66	enough cells to score	inactive
Ms4a13 (membrane-spanning 4-domains, subfamily A, member 13)	SID315474734	0.83	1.35	1.68	enough cells to score	inactive
Maob (monoamine oxidase B)	SID315476842	0.74	1.6	1.38	enough cells to score	inactive
Cep295 (centrosomal protein 295)	SID315481147	1.84	1.52	1.71	enough cells to score	inactive
Map1b (microtubule-associated protein 1B)	SID315468008	-0.31	1.28	1.41	enough cells to score	inactive
Ap5s1 (adaptor-related protein 5 complex, sigma 1 subunit)	SID315473843		1.8	1.6	fewer than 50 cells per well; well left out of scoring	inactive
Rimkla (ribosomal modification protein rimK-like family member A)	SID315477448	0.88	1.53	1.66	enough cells to score	inactive
Fam221a (family with sequence similarity 221, member A)	SID315478949	-0.47	1.4	1.58	enough cells to score	inactive
Cap1 (cyclase associated actin cytoskeleton regulatory protein 1)	SID315465742	0.32	1.7	1.63	enough cells to score	inactive
P2rx2 (purinergic receptor P2X, ligand-gated ion channel, 2)	SID315478906	0.47	1.56	1.43	enough cells to score	inactive
Ssr2 (signal sequence receptor, beta)	SID315472321	-0.01	1.53	1.57	enough cells to score	inactive
Lamp5 (lysosomal-associated membrane protein family, member 5)	SID315475253	-1.02	1.11	1.33	enough cells to score	inactive
Gdf10 (growth differentiation factor 10)	SID315466869	0.7	1.46	1.52	enough cells to score	inactive
Haus1 (HAUS augmin-like complex, subunit 1)	SID315478435	-0.66	1.28	1.3	enough cells to score	inactive
B4galt5	SID315471466	0.68	1.69	1.95	enough cells to score	inactive
Zfp386 (zinc finger protein 386 (Kruppel-like))	SID315471410	2.08	1.69	1.48	enough cells to score	inactive
Pdia5 (protein disulfide isomerase associated 5)	SID315474588	0.2	1.6	1.32	enough cells to score	inactive
Ift172 (intraflagellar transport 172)	SID315473150	0.26	1.53	1.52	enough cells to score	inactive
Slc25a31	SID315474709		1.4	2.25	fewer than 50 cells per well; well left out of scoring	inactive
Or51ab3 (olfactory receptor family 51 subfamily AB member 3)	SID315480698	0.4	1.59	1.24	enough cells to score	inactive
Or4x13 (olfactory receptor family 4 subfamily X member 13)	SID315479929	0.81	1.78	1.51	enough cells to score	inactive
Or4x13 (olfactory receptor family 4 subfamily X member 13)	SID315480021	-1.48	1.43	1.23	enough cells to score	inactive
Pemt (phosphatidylethanolamine N-methyltransferase)	SID315468464	-1.45	1.27	1.08	enough cells to score	inactive
Mlf1 (myeloid leukemia factor 1)	SID315467933	0.86	1.57	1.44	enough cells to score	inactive
Atg7 (autophagy related 7)	SID315474917	-0.11	1.65	1.56	enough cells to score	inactive
Shroom3 (shroom family member 3)	SID315470631		1.28	1.2	fewer than 50 cells per well; well left out of scoring	inactive
Zfp472 (zinc finger protein 472)	SID315478360		2.2	1.27	fewer than 50 cells per well; well left out of scoring	inactive
Steap3 (STEAP family member 3)	SID315473529	-0.01	1.6	1.62	enough cells to score	inactive
Hdc (histidine decarboxylase)	SID315467169	0	1.7	1.49	enough cells to score	inactive
Or2a12 (olfactory receptor family 2 subfamily A member 12)	SID315479986	-0.13	1.45	1.24	enough cells to score	inactive
Vmn1r24 (vomeronasal 1 receptor 24)	SID315477280	0.32	1.49	1.22	enough cells to score	inactive
Slc6a12	SID315466810	2.92	1.78	1.6	enough cells to score	inactive
Pigq (phosphatidylinositol glycan anchor biosynthesis, class Q)	SID315466992	0.25	1.45	1.29	enough cells to score	inactive
H1f8 (H1.8 linker histone)	SID315477367		1.41	1.42	fewer than 50 cells per well; well left out of scoring	inactive
Defb8 (defensin beta 8)	SID315479756	0.92	1.65	1.73	enough cells to score	inactive
Or8i2 (olfactory receptor family 8 subfamily I member 2)	SID315480411	-0.45	1.57	1.52	enough cells to score	inactive
Vmn1r73 (vomeronasal 1 receptor 73)	SID315477313		1.08	1.14	fewer than 50 cells per well; well left out of scoring	inactive
Dusp11	SID315474454	-0.58	1.4	1.3	enough cells to score	inactive

6 successive reagents from above, quoted:
gene symbol	PubChem SID	p65 translocation robust z-score	nuclear/cytoplasmic p65 ratio, rep 1	nuclear/cytoplasmic p65 ratio, rep 2	low cell count flag	call
Shroom3 (shroom family member 3)	SID315470631		1.28	1.2	fewer than 50 cells per well; well left out of scoring	inactive
Zfp472 (zinc finger protein 472)	SID315478360		2.2	1.27	fewer than 50 cells per well; well left out of scoring	inactive
Steap3 (STEAP family member 3)	SID315473529	-0.01	1.6	1.62	enough cells to score	inactive
Hdc (histidine decarboxylase)	SID315467169	0	1.7	1.49	enough cells to score	inactive
Or2a12 (olfactory receptor family 2 subfamily A member 12)	SID315479986	-0.13	1.45	1.24	enough cells to score	inactive
Vmn1r24 (vomeronasal 1 receptor 24)	SID315477280	0.32	1.49	1.22	enough cells to score	inactive

Next entries:
gene symbol	PubChem SID	p65 translocation robust z-score	nuclear/cytoplasmic p65 ratio, rep 1	nuclear/cytoplasmic p65 ratio, rep 2	low cell count flag	call
Lamtor3 (late endosomal/lysosomal adaptor, MAPK and MTOR activator 3)	SID315471633	1.01	1.74	1.5	enough cells to score	inactive
Ugp2 (UDP-glucose pyrophosphorylase 2)	SID315478010	1.01	1.84	1.52	enough cells to score	inactive
Nlgn3 (neuroligin 3)	SID315479822	-0.19	1.8	1.4	enough cells to score	inactive
Mphosph8 (M-phase phosphoprotein 8)	SID315475106		1.33	1.29	fewer than 50 cells per well; well left out of scoring	inactive
Perp (PERP, TP53 apoptosis effector)	SID315472058	0.81	1.5	1.57	enough cells to score	inactive
Carmil1 (capping protein regulator and myosin 1 linker 1)	SID315473619	-1.35	1.51	1.35	enough cells to score	inactive
Carmil1 (capping protein regulator and myosin 1 linker 1)	SID315481466	0.61	1.69	1.86	enough cells to score	inactive
Bbs7 (Bardet-Biedl syndrome 7)	SID315474244	0.06	1.58	1.67	enough cells to score	inactive
Nlrp4c (NLR family, pyrin domain containing 4C)	SID315475845	1.39	1.61	1.37	enough cells to score	inactive
Dctn3 (dynactin 3)	SID315471075	-0.14	1.49	1.33	enough cells to score	inactive
Mybpc3 (myosin binding protein C, cardiac)	SID315468047	-0.54	1.37	1.27	enough cells to score	inactive
Zbtb6 (zinc finger and BTB domain containing 6)	SID315479564	1.11	1.95	1.61	enough cells to score	inactive
Ube4a (ubiquitination factor E4A)	SID315477138	1.54	1.68	1.76	enough cells to score	inactive
Arl6ip1 (ADP-ribosylation factor-like 6 interacting protein 1)	SID315471184	1.7	1.94	1.6	enough cells to score	inactive
Dnali1 (dynein, axonemal, light intermediate polypeptide 1)	SID315475146		1.57	1.31	fewer than 50 cells per well; well left out of scoring	inactive
Fam24a (family with sequence similarity 24, member A)	SID315473462	-0.55	1.35	1.32	enough cells to score	inactive
Or12k7 (olfactory receptor family 12 subfamily K member 7)	SID315480274	0.5	1.74	1.45	enough cells to score	inactive
Slc25a45	SID315476599	-1.21	1.39	1.37	enough cells to score	inactive
Tbx5 (T-box 5)	SID315469598	0.97	1.63	1.69	enough cells to score	inactive
Slc16a12	SID315479511	-1.28	1.32	1.43	enough cells to score	inactive
